Molecules are shown by their SMILES. Hit rate of the full screen: of about 10,000 compounds, about 600 (6%) were called active. Another 27% or so got no clear call; they are omitted. Calls follow the shape of the full dose curve. This is one part of the list.

Sequences of proteins named here, by UniProt entry; tags and fusion partners are left off.
UniProt P04637, whole entry, looked up: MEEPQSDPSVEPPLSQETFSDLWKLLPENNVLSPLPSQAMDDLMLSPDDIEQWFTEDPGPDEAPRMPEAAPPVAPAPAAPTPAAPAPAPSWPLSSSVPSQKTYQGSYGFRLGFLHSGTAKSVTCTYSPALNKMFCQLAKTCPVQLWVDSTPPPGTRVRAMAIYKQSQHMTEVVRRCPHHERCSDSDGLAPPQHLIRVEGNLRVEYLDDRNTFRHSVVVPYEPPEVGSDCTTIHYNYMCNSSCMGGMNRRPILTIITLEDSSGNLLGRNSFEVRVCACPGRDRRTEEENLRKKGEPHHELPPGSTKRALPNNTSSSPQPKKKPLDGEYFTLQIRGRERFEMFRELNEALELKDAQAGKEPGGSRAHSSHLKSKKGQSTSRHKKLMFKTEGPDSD

This assay has as its target Cellular tumor antigen p53, Homo sapiens (UniProt P04637). Kind of assay: qHTS assay for small molecule agonists of the p53 signaling pathway (AID 651631).
`[I-].[Na+]`: the molecule was called inactive.
For `[I-].[K+]`, the result was inactive.
